In patent US8802713B2, “3-alkoxy-1-phenylpyrazole derivatives and pesticides” (Kumiai Chemical Industry Co., Ltd., priority 2007, dated 2014):
Some of these results come from one statement about several compounds together. For at least one compound, name, drawing or mass did not settle the structure.

Each compound was assayed on brown rice planthopper (assay: Insecticidal test on brown rice planthopper). Conditions: 500 ppm active ingredient, rice sprouts dipped, third-instar larvae, 25° C., 6 days.
Assay type: in vivo
Experimental: A wettable powder prepared in accordance with Formulation Example 2 was diluted with water to a concentration of an active ingredient of 500 ppm. Rice sprouts were dipped in this solution and put in a plastic cup having a capacity of 60 mL. Ten third-instar larvae of brown rice planthopper were released in the cup, the cup was lidded and placed in a thermostatic chamber at 25° C. for 6 days, and the number of dead larvae were counted for calculation of the mortality by Equation 2. The test was carried out by one series system.

Row | Compound | mortality [%]
1 | CCCOc1cc(NC(C)=O)n(-c2cc([S+]([O-])CC(F)(F)F)c(C)cc2F)n1 (stereo not shown) [1-24] | ≥ 90
2 | CC(=O)Nc1cc(OCCOCC(F)(F)F)nn1-c1cc(SCC(F)(F)F)c(C)cc1F [1-63] | ≥ 90
3 | CCC(C)Oc1cc(NC(C)=O)n(-c2cc(SCC(F)(F)F)c(C)cc2F)n1 (stereo not shown) [1-65] | ≥ 90
4 | CCC(C)Oc1cc(NC(C)=O)n(-c2cc([S+]([O-])CC(F)(F)F)c(C)cc2F)n1 (stereo not shown) [1-66] | ≥ 90
5 | Cc1cc(F)c(-n2nc(OCC(F)(F)C(F)(F)C(F)(F)C(F)(F)F)cc2N)cc1SCC(F)(F)F [1-75] | ≥ 90
6 | Cc1cc(F)c(-n2nc(OCC(F)(F)C(F)(F)C(F)(F)C(F)(F)F)cc2N)cc1[S+]([O-])CC(F)(F)F (stereo not shown) [1-76] | ≥ 90
7 | CC(=O)Nc1cc(OC2CCCC2)nn1-c1cc([S+]([O-])CC(F)(F)F)c(C)cc1F (stereo not shown) [1-80] | ≥ 90
8 | CCCOc1cc(C)n(-c2cc(SCC(F)(F)F)c(C)cc2F)n1 [1-95] | ≥ 90
9 | Cc1cc(F)c(-n2nc(OCCCC(F)(F)F)cc2C)cc1SCC(F)(F)F [1-103] | ≥ 90
10 | CCOC(=O)CNc1cc(OCC(F)(F)C(F)(F)F)nn1-c1cc([S+]([O-])CC(F)(F)F)c(C)cc1F (stereo not shown) [1-136] | ≥ 90
11 | C=C(F)CNc1cc(OCC(F)(F)C(F)(F)F)nn1-c1cc(SCC(F)(F)F)c(C)cc1F [1-173] | ≥ 90
12 | CC(=O)Nc1cc(OCC(F)(F)C(F)(F)F)nn1-c1cc(SCC2CC2)c(C)cc1F [1-182] | ≥ 90
13 | CC(=O)Nc1cc(OCC(F)(F)C(F)(F)F)nn1-c1cc([S+]([O-])CC2CC2)c(C)cc1F (stereo not shown) [1-183] | ≥ 90
14 | C=C(F)C[S+]([O-])c1cc(-n2nc(OCC(F)(F)C(F)(F)F)cc2NC(C)=O)c(F)cc1C (stereo not shown) [1-185] | ≥ 90
15 | CC(=O)Nc1cc(OCC(F)(F)C(F)(F)C(F)(F)F)nn1-c1cc([S+]([O-])CC(F)(F)Cl)c(C)cc1F (stereo not shown) [1-190] | ≥ 90
16 | COc1cc(OCC(F)(F)C(F)(F)F)nn1-c1cc([S+]([O-])CC(F)(F)F)c(C)cc1F (stereo not shown) [1-194] | ≥ 90
17 | COc1cc(OCC(F)(F)C(F)(F)C(F)(F)F)nn1-c1cc([S+]([O-])CC(F)(F)F)c(C)cc1F (stereo not shown) [1-198] | ≥ 90
18 | CNc1c(Cl)c(OCC(F)(F)C(F)(F)F)nn1-c1cc(SCC(F)(F)F)c(C)cc1F [1-214] | ≥ 90
19 | CNc1c(Cl)c(OCC(F)(F)C(F)(F)F)nn1-c1cc([S+]([O-])CC(F)(F)F)c(C)cc1F (stereo not shown) [1-215] | ≥ 90
20 | CC#CCOc1cc(NC(C)=O)n(-c2cc([S+]([O-])CC(F)(F)F)c(C)cc2F)n1 (stereo not shown) [1-218] | ≥ 90
21 | CCCC(C)Oc1cc(C)n(-c2cc(SCC(F)(F)F)c(C)cc2F)n1 (stereo not shown) [1-219] | ≥ 90
22 | CCC(C)COc1cc(C)n(-c2cc(SCC(F)(F)F)c(C)cc2F)n1 (stereo not shown) [1-221] | ≥ 90
23 | Cc1cc(F)c(-n2nc(OCC3CCC3)cc2C)cc1SCC(F)(F)F [1-227] | ≥ 90
24 | COCCOc1cc(C)n(-c2cc(SCC(F)(F)F)c(C)cc2F)n1 [1-239] | ≥ 90
25 | COCCOc1cc(C)n(-c2cc([S+]([O-])CC(F)(F)F)c(C)cc2F)n1 (stereo not shown) [1-240] | ≥ 90
26 | CSCCOc1cc(C)n(-c2cc(SCC(F)(F)F)c(C)cc2F)n1 [1-241] | ≥ 90
27 | Cc1cc(F)c(-n2nc(OCC[S+](C)[O-])cc2C)cc1SCC(F)(F)F (stereo not shown) [1-243] | ≥ 90
28 | Cc1cc(F)c(-n2nc(OCC[S+](C)[O-])cc2C)cc1[S+]([O-])CC(F)(F)F (stereo not shown) [1-244] | ≥ 90

Row | Compound | mortality [%]
29 | CC(=O)Nc1cc(OC(C)C#N)nn1-c1cc(SCC(F)(F)F)c(C)cc1F (stereo not shown) [1-245] | ≥ 90
30 | CC(=O)Nc1cc(OC(C)C#N)nn1-c1cc([S+]([O-])CC(F)(F)F)c(C)cc1F (stereo not shown) [1-246] | ≥ 90
31 | Cc1cc(F)c(-n2cc(Cl)c(OCC(F)C(F)(F)F)n2)cc1SCC(F)(F)F (stereo not shown) [1-257] | ≥ 90
32 | Cc1cc(F)c(-n2cc(Cl)c(OCC(F)C(F)(F)F)n2)cc1[S+]([O-])CC(F)(F)F (stereo not shown) [1-258] | ≥ 90
33 | Cc1cc(F)c(-n2cc(Br)c(OCC(F)C(F)(F)F)n2)cc1SCC(F)(F)F (stereo not shown) [1-259] | ≥ 90
34 | Cc1cc(F)c(-n2cc(Br)c(OCC(F)C(F)(F)F)n2)cc1[S+]([O-])CC(F)(F)F (stereo not shown) [1-260] | ≥ 90
35 | Cc1cc(F)c(-n2nc(OCC(F)C(F)(F)F)c(Cl)c2Cl)cc1SCC(F)(F)F (stereo not shown) [1-265] | ≥ 90
36 | Cc1cc(F)c(-n2nc(OCC(F)C(F)(F)F)c(Cl)c2Cl)cc1[S+]([O-])CC(F)(F)F (stereo not shown) [1-266] | ≥ 90
37 | Cc1cc(F)c(-n2nc(OCC[Si](C)(C)C)cc2C)cc1SCC(F)(F)F [1-285] | ≥ 90
38 | COCCCOc1cc(C)n(-c2cc(SCC(F)(F)F)c(C)cc2F)n1 [1-297] | ≥ 90
39 | COCCCOc1cc(C)n(-c2cc([S+]([O-])CC(F)(F)F)c(C)cc2F)n1 (stereo not shown) [1-298] | ≥ 90
40 | Cc1cc(F)c(-n2nc(OCCC[Si](C)(C)C)cc2C)cc1SCC(F)(F)F [1-299] | ≥ 90
41 | Cc1cc(F)c(-n2nc(OCCC(F)(F)C(F)(F)C(F)(F)C(F)(F)F)cc2C)cc1SCC(F)(F)F [1-311] | ≥ 90
42 | CON=Cc1cc(OCC(F)(F)C(F)(F)C(F)(F)C(F)(F)F)nn1-c1cc(SCC(F)(F)F)c(C)cc1F [1-331] | ≥ 90
43 | CCON=Cc1cc(OCC(F)(F)C(F)(F)C(F)(F)C(F)(F)F)nn1-c1cc(SCC(F)(F)F)c(C)cc1F [1-333] | ≥ 90
44 | CCON=Cc1cc(OCC(F)(F)C(F)(F)C(F)(F)C(F)(F)F)nn1-c1cc([S+]([O-])CC(F)(F)F)c(C)cc1F (stereo not shown) [1-334] | ≥ 90
45 | Cc1cc(F)c(-n2nc(OCC(F)(F)C(F)(F)C(F)(F)C(F)(F)F)cc2C#N)cc1SCC(F)(F)F [1-339] | ≥ 90
46 | Cc1cc(F)c(-n2nc(OCC(F)(F)C(F)(F)C(F)(F)C(F)(F)F)cc2C#N)cc1[S+]([O-])CC(F)(F)F (stereo not shown) [1-340] | ≥ 90
47 | Cc1cc(F)c(-n2nc(OCC(F)(F)C(F)(F)C(F)(F)C(F)(F)F)cc2C=O)cc1SCC(F)(F)F [1-341] | ≥ 90
48 | CNc1cc(OCC(F)(F)C(F)(F)C(F)(F)C(F)(F)F)nn1-c1cc(SCC(F)(F)F)c(C)cc1F [1-344] | ≥ 90
49 | C=CCNc1cc(OCC(F)(F)C(F)(F)C(F)(F)C(F)(F)F)nn1-c1cc(SCC(F)(F)F)c(C)cc1F [1-349] | ≥ 90
50 | C#CCNc1cc(OCC(F)(F)C(F)(F)C(F)(F)C(F)(F)F)nn1-c1cc(SCC(F)(F)F)c(C)cc1F [1-351] | ≥ 90
51 | C=C(F)CNc1cc(OCC(F)(F)C(F)(F)C(F)(F)C(F)(F)F)nn1-c1cc(SCC(F)(F)F)c(C)cc1F [1-359] | ≥ 90
52 | COc1cc(OCC(F)(F)C(F)(F)C(F)(F)C(F)(F)F)nn1-c1cc([S+]([O-])CC(F)(F)F)c(C)cc1F (stereo not shown) [1-365] | ≥ 90
53 | Cc1cc(F)c(-n2cc(Cl)c(OC(F)(F)C(F)OC(F)(F)C(F)(F)F)n2)cc1[S+]([O-])CC(F)(F)F (stereo not shown) [1-383] | ≥ 90
54 | Cc1cc(F)c(-n2nc(OC(F)(F)C(F)OC(F)(F)C(F)(F)F)c(Cl)c2Cl)cc1SCC(F)(F)F (stereo not shown) [1-384] | ≥ 90
55 | Cc1cc(F)c(-n2nc(OC(F)(F)C(F)OC(F)(F)C(F)(F)F)c(Cl)c2Cl)cc1[S+]([O-])CC(F)(F)F (stereo not shown) [1-385] | ≥ 90
